For this assay, the target named is T1, CheZ-mYFP (E. coli) (UniProt P0A9H9).
T1 sequence: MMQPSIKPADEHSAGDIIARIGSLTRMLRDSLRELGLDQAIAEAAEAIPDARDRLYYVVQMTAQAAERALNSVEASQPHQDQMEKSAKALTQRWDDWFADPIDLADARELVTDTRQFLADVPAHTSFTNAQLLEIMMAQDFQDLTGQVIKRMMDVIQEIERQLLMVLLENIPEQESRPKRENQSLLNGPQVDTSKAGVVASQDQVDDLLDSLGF
Briefly: FRET or BRET. (In BRET a luciferase serves as donor, and the signal depends on an acceptor being close.)

These are yes or no findings as the source states them, for the method shown. In cells and extracts the contact can be indirect. Some entries that bind do so weakly or less than the wild type. Tags and fused reporters may be left off the sequences shown.

B1: CheY-mRFP (protein, UniProt P0AE67 1-129)
chain: MADKELKFLVVDDFSTMRRIVRNLLKELGFNNVEEAEDGVDALNKLQAGGYGFVISDWNMPNMDGLELLKTIRADGAMSALPVLMVTAEAKKENIIAAAQAGASGYVVKPFTAATLEEKLNKIFEKLGM
modifications: phosphorylated by CheA (residue not given)
With B1, the binding entry is “binds”.

(Values after doi:10.1101/2022.03.29.486267.)
